Data as given in PubChem BioAssay AID652243 (Drosophila RNAi Screening Center, 2013).
Test: 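Fly genes required for human androgen receptor driven transcription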 (primary screen). Cells: Drosophila S2R+ cells. Reagents: long dsRNA against Drosophila genes. Timing: 72 h (48 h, then 24 h hormone). Conditions: synthetic androgen R1881 at 10 nM for 24 h. Detection: 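Firefly light from an androgen-responsive reporter and Renilla control light per well, raw and unnormalised, for each of two replicates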. Reading the numbers: firefly reporter light: higher = more light from androgen-responsive reporter; Renilla control light: higher = more constitutive control signal (cell number, transfection). Call rule: 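Hit when the log firefly-to-Renilla ratio dropped or increased by a fixed fold versus the mean of GFP or LacZ controls across duplicate plates; lowering cut given as 1.5 and as 3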. Calls: active = hit: reporter lowered or raised; inactive = no hit.
In all, the deposit lists about 24,000 reagents; below is a random part of those that have a named target and a result. Over the whole deposit, 246 (1%) were called active. 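Plates not normalised; calls are printed but the firefly/Renilla ratio behind them is not deposited; fold cut for lowering reported inconsistently.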 Raw values vary from plate to plate and are shown uncorrected. Reagents against one gene are numbered here. A plus sign joins genes that one reagent is predicted to hit. The record does not give: the amount of reagent.

gene knocked down	reagent	firefly reporter light, replicate 1	firefly reporter light, replicate 2	Renilla control light, replicate 1	Renilla control light, replicate 2	Call
sgll (GeneID 40925)	1	61394	83960	1.47e6	1.61e6	inactive
AttC (GeneID 36484)	1	1.47e5	1.75e5	9.59e5	1.07e6	inactive
AttC (GeneID 36484)	2	2.69e5	3.59e5	6.32e5	7.42e5	inactive
Mybbp1A (GeneID 31010)	1	28781	35062	4.92e5	3.34e5	inactive
CG5866 (GeneID 42097)	1	3.78e5	4.02e5	1.59e6	1.62e6	inactive
CG13796 + CG31904	1	1.17e6	8.81e5	2.75e6	2.12e6	inactive
sdt (GeneID 44861)	1	6.12e5	6.04e5	1.06e6	9.96e5	inactive
sdt (GeneID 44861)	2	6.91e5	7.16e5	9.14e5	1.02e6	inactive
sdt (GeneID 44861)	3	5.06e5	5.32e5	2.42e6	3.72e6	inactive
sdt (GeneID 44861)	4	2.54e5	4.26e5	3.15e6	4.40e6	inactive
sdt (GeneID 44861)	5	2.89e5	4.15e5	2.36e6	3.56e6	inactive
sdt (GeneID 44861)	6	2.87e5	3.77e5	3.35e6	2.80e6	inactive
sdt (GeneID 44861)	7	3.97e5	3.82e5	1.06e6	8.67e5	inactive
Ugt35C1 (GeneID 53507)	1	16018	19602	3.16e5	3.68e5	inactive
Ugt35C1 (GeneID 53507)	2	3.30e5	6.42e5	1.02e6	1.91e6	inactive
Sf3b5 (GeneID 50007)	1	2.34e5	2.17e5	3.09e6	3.04e6	inactive
Ravus (GeneID 41626)	1	25594	45506	6.29e5	1.09e6	inactive
CG34292 (GeneID 5740196)	1	6.74e5	3.77e5	2.14e6	1.13e6	inactive
CG4271 (GeneID 33410)	1	1.63e5	1.09e5	1.17e6	7.59e5	inactive
dpa (GeneID 35679)	1	3.21e5	2.45e5	2.00e6	1.65e6	inactive
salto (GeneID 36332)	1	1.18e6	1.39e6	1.36e6	1.37e6	inactive
salto (GeneID 36332)	2	5.97e5	3.37e5	1.28e6	9.31e5	inactive
Blos4 (GeneID 39219)	1	2.75e5	1.99e5	2.98e6	2.46e6	inactive
Blos4 (GeneID 39219)	2	1.57e5	2.57e5	2.66e5	8.25e5	inactive
mRpL34 (GeneID 4379878)	1	6.13e5	4.83e5	1.36e6	1.53e6	inactive
Det (GeneID 42077)	1	2.05e5	2.46e5	2.47e6	2.88e6	inactive
RAF2 (GeneID 39821)	1	31664	35165	4.22e5	2.29e5	inactive
RAF2 (GeneID 39821)	2	2.33e5	2.18e5	1.43e6	1.44e6	inactive
RAF2 (GeneID 39821)	3	1.98e5	1.79e5	4.45e5	4.32e5	inactive
CG17202 (GeneID 41526)	1	7.72e5	9.06e5	6.62e5	6.31e5	inactive
twe (GeneID 34954)	1	8.26e5	1.20e6	1.56e6	1.87e6	inactive
twe (GeneID 34954)	2	4.38e5	4.02e5	7.43e5	6.29e5	inactive
twe (GeneID 34954)	3					inactive
Ctr9 (GeneID 38149)	1	1.16e6	1.06e6	1.21e6	1.46e6	inactive
Ctr9 (GeneID 38149)	2	3.23e5	2.01e5	6.76e5	5.81e5	inactive
RpL14 (GeneID 38983)	1	1.60e5	1.23e5	1.33e6	9.10e5	inactive
Xpac (GeneID 31357)	1	2.04e5	2.73e5	2.90e6	2.89e6	inactive
Xpac (GeneID 31357)	2	5.38e5	4.22e5	1.11e6	7.88e5	inactive
CG14817 (GeneID 31145)	1	3.15e5	3.45e5	3.13e6	2.58e6	inactive
PPO3 (GeneID 44513)	1	8.90e5	8.35e5	1.19e6	1.41e6	inactive
PPO3 (GeneID 44513)	2	5.60e5	2.55e5	4.64e5	4.98e5	inactive
Coa8 (GeneID 31148)	1	2.97e5	3.67e5	2.51e6	2.61e6	inactive
p23 (GeneID 41173)	1	1.09e5	67648	7.33e5	8.27e5	inactive
p23 (GeneID 41173)	2	2.16e5	2.38e5	3.54e5	6.00e5	inactive
UQCR-C1 (GeneID 41800)	1	79651	91337	9.14e5	9.44e5	inactive
RpL8 (GeneID 44251)	1	57264	55916	6.87e5	7.11e5	inactive
RpL8 (GeneID 44251)	2	1.36e5	84366	7.09e5	8.51e5	inactive
RpL8 (GeneID 44251)	3	3.69e5	3.51e5	6.51e5	7.89e5	inactive
CG17362 (GeneID 39545)	1	2.79e5	1.63e5	1.63e6	1.11e6	inactive
CG33287 (GeneID 2768986)	1	4.08e5	1.00e6	8.95e5	1.53e6	inactive
mod(mdg4) + pre-mod(mdg4)-Z + pre-mod(mdg4)-T	1	1.01e5	56107	39866	1.33e5	inactive
mod(mdg4) + pre-mod(mdg4)-Z + pre-mod(mdg4)-T	2	2.84e5	2.67e5	3.05e6	3.05e6	inactive
Dtwd2 + Obp84a	1	1.70e5	1.81e5	2.78e6	2.42e6	inactive
Dtwd2 + Obp84a	2	4.03e5	3.27e5	3.72e5	3.51e5	inactive
CG4020 (GeneID 31522)	1	2.47e5	4.76e5	3.16e6	3.32e6	inactive
CG31404 (GeneID 318714)	1	2.47e5	3.47e5	2.92e6	3.72e6	inactive
CG31404 (GeneID 318714)	2	5.24e5	8.84e5	7.46e5	1.15e6	inactive
ImpE1 (GeneID 45879)	1	2.42e5	1.84e5	4.15e6	2.34e6	inactive
ImpE1 (GeneID 45879)	2	1.84e5	1.62e5	2.74e6	2.25e6	inactive
ImpE1 (GeneID 45879)	3	6.58e5	4.02e5	5.64e5	6.51e5	inactive

Reprinted from the listing (8 entries):
gene knocked down	reagent	firefly reporter light, replicate 1	firefly reporter light, replicate 2	Renilla control light, replicate 1	Renilla control light, replicate 2	Call
PPO3 (GeneID 44513)	2	5.60e5	2.55e5	4.64e5	4.98e5	inactive
Coa8 (GeneID 31148)	1	2.97e5	3.67e5	2.51e6	2.61e6	inactive
p23 (GeneID 41173)	1	1.09e5	67648	7.33e5	8.27e5	inactive
p23 (GeneID 41173)	2	2.16e5	2.38e5	3.54e5	6.00e5	inactive
UQCR-C1 (GeneID 41800)	1	79651	91337	9.14e5	9.44e5	inactive
RpL8 (GeneID 44251)	1	57264	55916	6.87e5	7.11e5	inactive
RpL8 (GeneID 44251)	2	1.36e5	84366	7.09e5	8.51e5	inactive
RpL8 (GeneID 44251)	3	3.69e5	3.51e5	6.51e5	7.89e5	inactive
